Data as given in publication PMC9708603.
No constants are given. Whether binding was seen depends on the method and setting. In cells and extracts the contact can be indirect. A yes stands for co-enrichment or nearness to the bait. Other partners may have been found.

Biological target: GST-14-3-3
Experiment: affinity purification with mass spectrometry; KIOSS: glutathione Sepharose 4B beads coated with GST-14-3-3 (500 pmol), incubated with RIPA lysates of mouse striatal/accumbal slices for 60 min at 4 °C; slices treated with PEP-005 or carbachol, with or without GF109203X; bound proteins digested, phosphopeptides enriched on TiO2, LC-MS/MS; only the target purified

| binding | Binder |
| --- | --- |
| binds | Git1 (protein, UniProt Q68FF6 1-770, phosphorylated; sites not given) MSRKGPRAEVCADCSAPDPGWASISRGVLVCDECCSVHRSLGRHISIVKHLRHSAWPPTLLQMVHTLASNGANSIWEHSLLDPAQVQSGRRKANPQDKVHPIKSEFIRAKYQMLAFVHKLPCRDDDGVTAKDLSKQLHSSVRTGNLETCLRLLSLGAQANFFHPEKGTTPLHVAAKAGQTLQAELLVVYGADPGSPDVNGRTPIDYARQAGHHELAERLVECQYELTDRLAFYLCGRKPDHKNGHYIIPQMADRSRQKCMSQSLDLSELAKAAKKKLQALSNRLFEELAMDVYDEVDRRENDAVWLATQNHSTLVTERSAVPFLPVNPEYSATRNQGRQKLARFNAREFATLIIDILSEAKRRQQGKSLSSPTDNLELSARSQSELDDQHDYDSVASDEDTDQEPLPSAGATRNNRARSMDSSDLSDGAVTLQEYLELKKALATSEAKVQQLMKVNSSLSDELRRLQREIHKLQAENLQLRQPPGPVPPPSLPSERAEHTLMGPGGSTHRRDRQAFSMYEPGSALKPFGGTPGDELATRLQPFHSTELEDDAIYSVHVPAGLYRIRKGVSASSVPFTPSSPLLSCSQEGSRHASKLSRHGSGADSDYENTQSGDPLLGLEGKRFLELSKEDELHPELESLDGDLDPGLPSTEDVILKTEQVTKNIQELLRAAQEFKHDSFVPCSEKIHLAVTEMASLFPKRPALEPVRSSLRLLNASAYRLQSECRKTVPPEPGAPVDFQLLTQQVIQCAYDIAKAAKQLVTITTREKKQ |
| binds | Bcr (protein, UniProt Q6PAJ1 1-1270, phosphorylated; sites not given) MVDSVGFAEAWRAQFPDSEPPRMELRSVGDIEQELERCKASIRRLEQEVNQERFRMIYLQTLLAKEKKSYDRQRWGFRRAAQPPDGAAEPRASAPRPPPAPADGADPAPVEESEARPDGEGSPSKGRSASARRPAAAASADRDDRGPPTSVAALRSNFEKIRKGPAQPGSADAEKPFYVNVEFHHERGLVKVNDKEVSDRISSLGSQAMQMERKKSQQSAGQGLGEAPRPHYRGRSSESSCGLDGDYEDAELNPRFLKDNLINANGGNRPPWPPLEYQPYQSIYVGGMMVEGEGKSPLLRSQSTSEQEKRLTWPRRSYSPRSFEDSGGGYTPDCSSNENLTSSEEDFSSGQSSRVSPSPTTYRMFRDKSRSPSQNSQQSFDSSSPPTPQCQKRHRQCQVVVSEATIVGVRKTGQIWPSDGDSTFQGEADSSFGTPPGYGCAADQAEEQRRHQDGLPYIDDSPSSSPHLSSKGRGSLASGALDPTKVSELDLEKGLEMRKWVLSGILASEETYLSHLEALLLPMKPLKAAATTSQPVLTSQQIETIFFKVPELYEIHKEFYDGLFPRVQQWSHQQRVGDLFQKLASQLGVYRAFVDNYGVAMETAEKCCQANAQFAEISENLRARSNKDVKDSTTKNSLETLLYKPVDRVTRSTLVLHDLLKHTPSSHPDHSLLQDALRISQNFLSSINEEITPRRQSMTVKKGEHRQLLKDSFMVELVEGARKLRHIFLFTDLLLCTKLKKQSGGKTQQYDCKWYIPLTDLSFQMVDELEALPNIPLVPDEELDALKIKISQIKSDIQREKRANKGSKVMERLRKKLSEQESLLLLMSPSMAFRVHSRNGKSYTFLISSDYERAEWRESIREQQKKCFKSFSLTSVELQMLTNSCVKLQTVHHIPLTINKEDDESPGLYGFLHVIVHSATGFKQSSNLYCTLEVDSFGYFVNKAKTRVYRDTTEPNWNEEFEIELEGSQTLRILCYEKCYNKMKMTKEDGESADKLMGKGQVQLDPQTLQDRDWQRTVIDMNGIEVKLSVKFTSREFSLKRMPSRKQTGVFGVKIAVVTKRERSKVPYIVRQCVEEIERRGMEEVGIYRVSGVATDIQALKAAFDVNNKDVSVMMSEMDVNAIAGTLKLYFRELPEPLFTDEFYPNFAEGIALSDPVAKESCMLNLLLSLPEANLLTFLFLLDHLKRVAEKETVNKMSLHNLATVFGPTLLRPSEKESKLPANPSQPITMTDSWSLEVMSQVQVLLYFLQLEAIPAPDSKRQSILFSTEV |
